At least one compound was matched to its structure with a doubt left.
Experiment: Particle size (PSD) of itraconazole suspensions by Malvern Zetasizer, during milling and on storage
Type: physicochemical
Settings: unmilled drug

In the case of `CCC(C)n1ncn(-c2ccc(N3CCN(c4ccc(OCC5COC(Cn6cncn6)(c6ccc(Cl)cc6Cl)O5)cc4)CC3)cc2)c1=O` (stereo not shown) [itraconazole], the “particle size prior to milling” value is reported as 10-50 micron.

— patent US9241940B2, “Pharmaceutical composition comprising nanocrystals” (MW ENCAP LIMITED, priority 2011, dated 2016)
